# Source: publication PMC12431657, “Discovery and mechanistic insights of dibenzoylmethane as a broad spectrum inhibitor of coronavirus” (PLOS Pathogens, 2025)
# Counter-ions that a name gives are not always drawn. Like-named read-outs stand apart in the source and are kept apart here. Among all 3,300 compounds or so, about 95 (3%) showed an effect of 50% or more. Some of the results follow. Peptide text beside a SMILES is read from it.
# Test system: HCoV-229E
# Parameters: species or system Huh-7; HTS, protection from HCoV-229E induced cell death, luminescent cell viability (CellCounting-Lite 2.0), inhibition rate
# Conditions: 24 h post infection, 1 h compound pre-incubation, 10 µM, inhibitor
Compound,229E Inhibition rate [%],"229E Inhibition rate (229E Inhibition rate, 24 h) [%]"
CO[C@H]1O[C@@H]2O[C@@]3(C)CC[C@H]4[C@H](C)CC[C@@H]([C@H]1C)[C@@]24OO3 [Artemether],15.9,–
O=C1C[C@@H](c2ccc(O)cc2)Oc2cc(O[C@@H]3O[C@H](CO)[C@@H](O)[C@H](O)[C@H]3O[C@@H]3OC[C@](O)(CO)[C@H]3O)ccc21 [Liquiritigenin-7-O-β-D-glucopyranosyl-(1→2)-β-D-apiofuranoside],21.1,–
CCCCCCCCC(=O)O [Nonanoic acid],10.9,–
CN(C)[C@@H]1C(O)=C(C(N)=O)C(=O)[C@@]2(O)C(O)=C3C(=O)c4c(O)ccc(Cl)c4[C@@H](O)[C@H]3C[C@@H]12 [Demeclocycline (hydrochloride)],0,–
CC(=O)N[C@@H](C)C(=O)O [Ac-Ala-OH],13.2,–
"CC(C)C12CCC(C)(CC1)O2 [1,4-Cineole]",14.2,–
COc1ccccc1C(=O)O [2-Methoxybenzoic acid],19.8,–
Oc1cc(O)c2c(c1)O[C@@]1(c3ccc(O)c(O)c3)Oc3cc(O)c4c(c3[C@@H]2[C@H]1O)O[C@H](c1ccc(O)c(O)c1)[C@H](O)[C@H]4c1c(O)cc(O)c2c1O[C@H](c1ccc(O)c(O)c1)[C@H](O)C2 [Cinnamtannin B-1],6.4,–
OCCc1ccc(O)cc1 [Tyrosol],20,–
O=C(/C=C/c1ccc(O)cc1)OC[C@H]1O[C@@H](Oc2c(-c3ccc(O)cc3)oc3cc(O)cc(O)c3c2=O)[C@H](O)[C@@H](O)[C@@H]1O [Tiliroside],9.9,–
O=C(O)CCCCCCCCCCCC(=O)O [Tridecanedioic acid],19.9,–
N#CS [Sodium thiocyanate],15,–
OCc1ccoc1 [3-Furanmethanol],0,–
C[C@@H]1O[C@@H](Oc2cc(O)c3c(=O)c(O[C@@H]4O[C@@H](C)[C@H](O)[C@@H](O)[C@H]4O)c(-c4ccc(O)cc4)oc3c2)[C@H](O)[C@H](O)[C@H]1O [Kaempferitrin],13.1,–
C=C1C[C@@]23CC[C@H]4[C@@](C)(CCC[C@@]4(C)C(=O)O[C@@H]4O[C@H](CO)[C@@H](O)[C@H](O)[C@H]4O[C@@H]4O[C@H](CO)[C@@H](O)[C@H](O)[C@H]4O)[C@@H]2CC[C@]1(O[C@@H]1O[C@H](CO)[C@@H](O)[C@H](O[C@@H]2O[C@H](CO)[C@@H](O)[C@H](O)[C@H]2O)[C@H]1O[C@@H]1O[C@H](CO)[C@@H](O)[C@H](O)[C@H]1O)C3 [Rebaudioside D],21.7,–
CC[C@@H](C(=O)[C@@H](C)[C@@H](O)[C@H](C)CCc1ccc(C)c(O)c1C(=O)O)[C@H]1O[C@](CC)([C@H]2CC[C@](O)(CC)[C@H](C)O2)C[C@@H]1C [Lasalocid],–,3.1
"C/C=C(/C)C(=O)O[C@H]1C(C)=C[C@]23C(=O)[C@@H](C=C4COC(C)(C)O[C@H]4[C@]12O)[C@H]1[C@@H](C[C@H]3C)C1(C)C [Ingenol-5,20-acetonide-3-O-angelate]",24.2,–
O=C1c2ccccc2C(=O)c2cc(O)ccc21 [2-Hydroxyanthraquinone],23.5,–
NCCS(=O)O [Hypotaurine],11.8,–

# Some of these compounds in order of count of non-hydrogen atoms, descending.
Compound,229E Inhibition rate [%],"229E Inhibition rate (229E Inhibition rate, 24 h) [%]"
Oc1cc(O)c2c(c1)O[C@@]1(c3ccc(O)c(O)c3)Oc3cc(O)c4c(c3[C@@H]2[C@H]1O)O[C@H](c1ccc(O)c(O)c1)[C@H](O)[C@H]4c1c(O)cc(O)c2c1O[C@H](c1ccc(O)c(O)c1)[C@H](O)C2 [Cinnamtannin B-1],6.4,–
"CC(C)C12CCC(C)(CC1)O2 [1,4-Cineole]",14.2,–
OCCc1ccc(O)cc1 [Tyrosol],20,–

# (list continues)

Compound,229E Inhibition rate [%],"229E Inhibition rate (229E Inhibition rate, 24 h) [%]"
CCCCC1OC(=O)c2ccccc21 (stereo not shown) [Butylphthalide],0,–
C[C@@H]1CC[C@@]2(OC1)O[C@H]1C[C@H]3[C@@H]4CC[C@@H]5C[C@@H](O)CC[C@]5(C)[C@H]4CC[C@]3(C)[C@H]1[C@@H]2C [Smilagenin],10.8,–
O=c1c(O[C@@H]2O[C@H](CO)[C@@H](O)[C@H](O)[C@H]2O[C@@H]2OC[C@@H](O)[C@H](O)[C@H]2O)c(-c2ccc(O)cc2)oc2cc(O)cc(O)c12 [Leucoside],7.8,–
CCCCCCCCCCCCCC(=O)OCC(O)CO (stereo not shown) [1-Monomyristin],7.6,–
CC(C)=CCc1cc(-c2coc3cc(O)cc(O)c3c2=O)cc(O)c1O [Glycyrrhisoflavone],62.7,–
COc1cc(/C=C/c2ccc(O)c(O)c2)cc(OC)c1 [3'-Hydroxypterostilbene],11.5,–
O=C1CC(c2ccc(O)cc2)Oc2ccccc21 (stereo not shown) [4'-Hydroxyflavanone],32.3,–
CC[C@@H]1CN2CC[C@@]3(C(=O)Nc4ccccc43)[C@@H]2C[C@@H]1/C(=C\OC)C(=O)OC [Corynoxine],21.5,–
CCCCCCCCCCCCC(=O)O [Tridecanoic acid],12.5,–
NCc1ccc(O)cc1 [4-Hydroxybenzylamine],0,–
OC[C@H]1NC[C@@H](O)[C@@H](O)[C@@H]1O [1-Deoxymannojirimycin (hydrochloride)],29.2,–
C[C@H]1O[C@@H](O[C@H]2CC[C@@]3(C)[C@@H](CC[C@]4(C)[C@@H]3C=C[C@]35OC[C@@]6(CCC(C)(C)C[C@H]63)[C@H](O)C[C@]54C)[C@]2(C)CO)[C@H](O)[C@@H](O[C@@H]2O[C@H](CO)[C@@H](O)[C@H](O)[C@H]2O)[C@H]1O [Saikosaponin D],17.7,–
COc1cc2cc(c1Cl)N(C)C(=O)C[C@H](O)[C@]1(C)O[C@H]1[C@H](C)[C@@H]1C[C@@](O)(NC(=O)O1)[C@H](OC)/C=C/C=C(\C)C2 [Maytansinol],12.6,–
O=C(OCc1ccccc1)c1ccccc1 [Benzyl benzoate],12.5,–
COC(=O)c1ccc(OC)c(O)c1 [Methyl isovanillate],12.8,–
CC(C)(O)CC(=O)O [3-Hydroxyisovaleric acid],20.6,–
COc1nccnc1CC(C)C [2-Isobutyl-3-methoxypyrazine],10.1,–
CC(C)[C@@H]1NC(=O)[C@@H]2CCCN2C(=O)[C@H](C(C)C)NC(=O)CNC(=O)[C@H](C)NC(=O)[C@H](Cc2c[nH]c3ccccc23)NC1=O [Segetalin A] (cyclo(AGVPVW)),4,–
